These results are taken from paper PMC7541494.

For this test, the target named is PilW3 fused to super-folder GFP (M. xanthus). Nature of the test: affinity purification with mass spectrometry; pull-down with GFP-Trap agarose from detergent-lysed M. xanthus cell extracts, 1 h at 4 °C; LFQ-MS, enrichment against GFP-FLAG control; two biological replicates.

These are yes or no findings as the source states them, for the method shown. In cells and extracts the contact can be indirect. A yes stands for co-enrichment or nearness to the bait. Other partners may have been found.

B1: PilB, endogenous (enzyme, UniProt Q1D098 1-566)
chain: MSGRLGELLVRENLISVQQLRKAQEEQQKNGTRIGTALVKTGAIEESKLTDFLSKQYGVPAINLKDFDVEPDIIKLVPKEVAEKHLVVPVNRAGPSLIVAMCDPSNIFAVDDLKFLTGYNIETVVASEVSIREAIERYYAEKGPSLEDIVGDVGDDIEVTKEETENIDEMAKAADDAPVVKLVNLILMDAIKKRASDIHVEPYEKDFRVRFRIDGVMYEVMRPPMKLRNAITSRLKIMASLDISERRLPQDGRIKIKMGGGKEMDFRVSVCPTLFGEKVVMRLLDKSNLQLDMTKLGFDAQPLAWFKEAIDRPYGMVLVTGPTGSGKTTTLYSALSSLNGLDTNICTAEDPVEFNFAGINQVQMHDDIGLNFAAALRSFLRQDPDIIMIGEIRDFETAEIGVKAALTGHLVLSTLHTNDAPGTVSRLLNMGIEPFLVTASLNLILAQRLARRLCPACKKPAENVDEQALIDAGVPPDKIGTFTMYEKVGCRDCNDRGYRGRVAIYEVMPFWDGLKELVINGASAAELKQEAIRLGMSSLRMSGLRKMMDGATTLEEVVGNTAPDRF
For B1, the binding result is given as “binds”.
